# According to patent publication US20210085676A1, “TREATMENT FOR AGE- AND OXIDATIVE STRESS-ASSOCIATED MUSCLE ATROPHY AND WEAKNESS” (Oklahoma Medical Research Foundation, priority 2018, published 2021):
# “Also recorded” adds a separate entry of the source.
# System: SERCA1 and SERCA2
# Experiment: SERCA1 and SERCA2 mRNA (real-time PCR) and protein (western blot) levels in gastrocnemius of treated mice
# Assay type: in vivo, mouse
# Conditions: 50 mg/kg i.p. 3 times per week, 7 weeks
# Experimental: Animals. The generation and characterization of the Sod1^−/− mice is described in detail elsewhere (3, 24). Female ≈2 months old C57BL/6J wild-type (WT; n=12-18) and Sod1^−/− mice (n=12-18) were divided into four groups and treated with either vehicle (10% DMSO, 10% Tween-80 in PBS) or CDN1163 (50 mg/kg) by intraperitoneal injection three times per week for 7 weeks. Care and management of the mice was executed according to The Guide for the Care and Use of Laboratory Animals and approved by the institutional Animal Care and Use Committee at the Oklahoma Medical Research Foundation (OKC, Okla., USA). Protein preparation and western blot. Muscles were homogenized in RIPA buffer containing 50 mM Tris (pH 7.4), 150 mM NaCl, and protease inhibitors. Protein was quantified using the Bio-Rad kit (Sigma-Aldrich, Poole, UK) and transferred to nitrocellulose membrane after electrophoresis using 8-15% polyacrylamide gels. Bands were scanned and quantified using Gene Tool system (SynGene—Frederick, Md.). All image intensities were normalized to protein intensity based on the ponceau stain. Quantification of mRNA levels using real-time PCR. […] The data were analyzed using the ΔΔCt method. […] Ca^2+-dependent Ca^2+-ATPase activity was measured in gastrocnemius muscle homogenates to determine the effects of CDN1163 on SERCA function. […]
structure (smiles),measurement,value
"Cc1ccc2cccc(NC(=O)c3ccc(OC(C)C)cc3)c2n1 [CDN1163, 4-(1-Methylethoxy)-N-(2-methyl-8-quinolinyl)-benzamide]",SERCA1 and SERCA2 mRNA levels,no effect; also recorded: not altered
same,SERCA1 and SERCA2 protein levels,no effect; also recorded: not altered
